Test in all cases: co-IP
Test [1] concerns the target T1, Lphn2 with C-terminal mClover3 (wild-type, full-length Latrophilin-2) (UniProt O95490).
T1 sequence: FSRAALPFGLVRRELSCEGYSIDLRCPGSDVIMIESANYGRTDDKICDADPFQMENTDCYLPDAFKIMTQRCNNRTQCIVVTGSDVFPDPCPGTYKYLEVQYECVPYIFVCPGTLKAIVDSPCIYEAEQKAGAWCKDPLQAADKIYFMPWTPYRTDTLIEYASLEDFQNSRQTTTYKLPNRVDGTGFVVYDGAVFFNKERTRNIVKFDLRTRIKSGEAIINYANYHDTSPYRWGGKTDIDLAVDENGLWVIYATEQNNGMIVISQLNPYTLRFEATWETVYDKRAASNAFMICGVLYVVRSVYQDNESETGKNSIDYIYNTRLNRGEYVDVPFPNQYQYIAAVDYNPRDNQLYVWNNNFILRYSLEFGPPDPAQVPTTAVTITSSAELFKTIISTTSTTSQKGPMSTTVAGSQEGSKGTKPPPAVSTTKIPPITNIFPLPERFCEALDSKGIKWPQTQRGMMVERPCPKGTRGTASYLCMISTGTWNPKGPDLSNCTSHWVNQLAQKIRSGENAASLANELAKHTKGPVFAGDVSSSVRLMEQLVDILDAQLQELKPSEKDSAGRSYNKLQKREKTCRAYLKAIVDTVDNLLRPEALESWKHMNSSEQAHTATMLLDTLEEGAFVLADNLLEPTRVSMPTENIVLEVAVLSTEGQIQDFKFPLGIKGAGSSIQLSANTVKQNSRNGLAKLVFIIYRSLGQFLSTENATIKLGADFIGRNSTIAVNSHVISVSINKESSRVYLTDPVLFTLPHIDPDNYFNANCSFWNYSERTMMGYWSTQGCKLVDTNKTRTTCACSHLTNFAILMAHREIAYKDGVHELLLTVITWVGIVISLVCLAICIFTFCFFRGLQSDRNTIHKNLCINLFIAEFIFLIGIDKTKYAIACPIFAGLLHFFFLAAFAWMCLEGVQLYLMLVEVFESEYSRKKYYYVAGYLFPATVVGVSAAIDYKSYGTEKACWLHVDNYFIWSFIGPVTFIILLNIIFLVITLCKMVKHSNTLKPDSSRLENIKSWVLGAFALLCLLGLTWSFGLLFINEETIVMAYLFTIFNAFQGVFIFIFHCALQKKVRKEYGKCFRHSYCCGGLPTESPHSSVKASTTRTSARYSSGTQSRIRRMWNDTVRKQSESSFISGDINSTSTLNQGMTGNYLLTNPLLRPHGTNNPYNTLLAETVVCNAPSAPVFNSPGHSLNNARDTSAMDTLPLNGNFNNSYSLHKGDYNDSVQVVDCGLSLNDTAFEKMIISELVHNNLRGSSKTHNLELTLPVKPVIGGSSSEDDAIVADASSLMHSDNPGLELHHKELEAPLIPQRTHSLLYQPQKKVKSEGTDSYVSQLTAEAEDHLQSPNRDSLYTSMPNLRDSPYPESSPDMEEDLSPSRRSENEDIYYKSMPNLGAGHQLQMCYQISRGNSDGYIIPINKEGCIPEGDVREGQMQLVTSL

The chains behind the UniProt entries cited, without tags or fusion partners. Residues count along the entry.
UniProt Q9BYB0: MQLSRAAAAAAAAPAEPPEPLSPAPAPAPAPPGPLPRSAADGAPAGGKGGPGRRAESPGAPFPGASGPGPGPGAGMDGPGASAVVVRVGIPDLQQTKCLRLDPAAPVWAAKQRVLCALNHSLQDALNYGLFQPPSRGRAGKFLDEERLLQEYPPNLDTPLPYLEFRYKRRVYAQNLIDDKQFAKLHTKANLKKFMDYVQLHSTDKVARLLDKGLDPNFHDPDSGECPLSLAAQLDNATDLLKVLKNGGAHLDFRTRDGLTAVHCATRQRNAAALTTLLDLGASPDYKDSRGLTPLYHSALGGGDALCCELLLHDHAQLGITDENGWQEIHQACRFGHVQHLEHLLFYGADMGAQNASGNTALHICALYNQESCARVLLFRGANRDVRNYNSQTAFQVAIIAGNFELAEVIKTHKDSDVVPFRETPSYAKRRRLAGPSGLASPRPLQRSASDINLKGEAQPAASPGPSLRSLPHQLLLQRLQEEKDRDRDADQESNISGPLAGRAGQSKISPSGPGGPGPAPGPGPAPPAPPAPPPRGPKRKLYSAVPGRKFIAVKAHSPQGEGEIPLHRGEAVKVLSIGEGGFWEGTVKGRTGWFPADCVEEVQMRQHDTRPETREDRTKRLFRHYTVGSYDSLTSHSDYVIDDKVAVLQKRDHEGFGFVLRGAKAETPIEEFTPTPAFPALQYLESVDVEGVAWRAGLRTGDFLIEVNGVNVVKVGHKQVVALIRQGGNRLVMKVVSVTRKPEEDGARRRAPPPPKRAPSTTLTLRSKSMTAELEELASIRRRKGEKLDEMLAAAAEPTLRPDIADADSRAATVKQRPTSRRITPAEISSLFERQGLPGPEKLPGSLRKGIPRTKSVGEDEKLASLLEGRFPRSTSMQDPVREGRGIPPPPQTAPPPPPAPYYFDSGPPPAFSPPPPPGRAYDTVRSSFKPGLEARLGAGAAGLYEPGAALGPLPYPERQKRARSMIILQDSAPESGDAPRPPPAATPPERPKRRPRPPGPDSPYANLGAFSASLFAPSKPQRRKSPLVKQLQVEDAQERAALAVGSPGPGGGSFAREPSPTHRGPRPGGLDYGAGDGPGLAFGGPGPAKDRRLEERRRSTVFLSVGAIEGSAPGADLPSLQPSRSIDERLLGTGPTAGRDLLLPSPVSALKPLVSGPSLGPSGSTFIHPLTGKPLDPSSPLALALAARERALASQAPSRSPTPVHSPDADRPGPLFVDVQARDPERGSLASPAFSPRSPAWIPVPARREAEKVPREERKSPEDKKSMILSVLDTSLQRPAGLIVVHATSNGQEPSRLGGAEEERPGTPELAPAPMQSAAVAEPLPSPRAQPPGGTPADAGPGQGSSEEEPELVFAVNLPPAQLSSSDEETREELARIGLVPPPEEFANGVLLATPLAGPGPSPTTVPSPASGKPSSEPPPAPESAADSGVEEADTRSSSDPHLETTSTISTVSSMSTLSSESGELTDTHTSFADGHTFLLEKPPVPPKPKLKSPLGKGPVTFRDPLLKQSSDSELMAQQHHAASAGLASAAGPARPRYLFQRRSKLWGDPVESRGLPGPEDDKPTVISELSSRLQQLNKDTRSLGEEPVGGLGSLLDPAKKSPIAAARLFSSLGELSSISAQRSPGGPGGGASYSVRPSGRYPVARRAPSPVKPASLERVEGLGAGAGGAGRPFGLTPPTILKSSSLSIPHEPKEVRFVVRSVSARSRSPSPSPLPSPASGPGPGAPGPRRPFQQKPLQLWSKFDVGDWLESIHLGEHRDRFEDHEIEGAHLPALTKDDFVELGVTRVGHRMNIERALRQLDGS
UniProt P37023, residues 22-503: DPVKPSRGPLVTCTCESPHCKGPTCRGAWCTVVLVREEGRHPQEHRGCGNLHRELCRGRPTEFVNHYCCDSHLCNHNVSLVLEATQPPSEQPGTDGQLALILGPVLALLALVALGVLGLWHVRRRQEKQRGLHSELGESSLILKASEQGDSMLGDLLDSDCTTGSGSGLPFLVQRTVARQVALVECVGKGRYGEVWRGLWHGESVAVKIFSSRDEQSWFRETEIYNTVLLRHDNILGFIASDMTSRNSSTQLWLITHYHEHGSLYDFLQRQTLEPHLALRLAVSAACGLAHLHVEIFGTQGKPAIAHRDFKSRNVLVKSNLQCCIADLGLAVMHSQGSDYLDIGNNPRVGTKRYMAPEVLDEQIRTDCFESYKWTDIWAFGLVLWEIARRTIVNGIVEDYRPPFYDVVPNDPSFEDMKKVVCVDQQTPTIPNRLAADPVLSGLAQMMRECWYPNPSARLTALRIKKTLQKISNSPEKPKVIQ

In test [2] the target is T2, Endoglin (endogenous) (human (endogenous in HUVECs)) (UniProt P17813).
T2 sequence: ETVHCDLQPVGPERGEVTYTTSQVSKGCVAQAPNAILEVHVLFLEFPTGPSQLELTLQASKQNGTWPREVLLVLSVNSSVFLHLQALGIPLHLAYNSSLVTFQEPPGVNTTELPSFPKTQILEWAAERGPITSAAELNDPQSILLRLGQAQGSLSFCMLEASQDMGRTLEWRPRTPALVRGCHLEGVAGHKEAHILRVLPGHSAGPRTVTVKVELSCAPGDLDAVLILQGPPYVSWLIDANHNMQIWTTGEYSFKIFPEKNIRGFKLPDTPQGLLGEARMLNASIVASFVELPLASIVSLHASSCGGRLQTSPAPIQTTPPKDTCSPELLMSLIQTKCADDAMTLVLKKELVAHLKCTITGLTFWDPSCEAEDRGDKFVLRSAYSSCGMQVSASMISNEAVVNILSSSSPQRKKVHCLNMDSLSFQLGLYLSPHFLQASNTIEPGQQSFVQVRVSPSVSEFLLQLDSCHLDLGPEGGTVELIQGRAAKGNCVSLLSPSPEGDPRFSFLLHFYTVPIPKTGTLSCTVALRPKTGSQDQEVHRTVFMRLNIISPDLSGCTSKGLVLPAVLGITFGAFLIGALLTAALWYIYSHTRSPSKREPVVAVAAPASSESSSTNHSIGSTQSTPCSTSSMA

In test [3] the target is T1, Lphn2 with C-terminal mClover3 (wild-type, full-length Latrophilin-2). This is another data set of the same source.
The target of the next test is GFP-tagged Shank3 (UniProt Q9BYB0).

Like-named read-outs stand apart in the source and are kept apart here. These are yes or no findings as the source states them, for the method shown. In cells and extracts the contact can be indirect. Some results given as binding are weak or reduced against the parent protein; the word gives no strength. For some assays here: Tags and fused reporters may be left off the sequences shown.

Turning to “Activin receptor-like kinase 1 (ALK1, endogenous) (from UniProt P37023 22-503)”, the binding entry in test [1] and in test [2] was “binds” each time.

B1: Endoglin (endogenous) (receptor, UniProt P17813 26-658)
chain: ETVHCDLQPVGPERGEVTYTTSQVSKGCVAQAPNAILEVHVLFLEFPTGPSQLELTLQASKQNGTWPREVLLVLSVNSSVFLHLQALGIPLHLAYNSSLVTFQEPPGVNTTELPSFPKTQILEWAAERGPITSAAELNDPQSILLRLGQAQGSLSFCMLEASQDMGRTLEWRPRTPALVRGCHLEGVAGHKEAHILRVLPGHSAGPRTVTVKVELSCAPGDLDAVLILQGPPYVSWLIDANHNMQIWTTGEYSFKIFPEKNIRGFKLPDTPQGLLGEARMLNASIVASFVELPLASIVSLHASSCGGRLQTSPAPIQTTPPKDTCSPELLMSLIQTKCADDAMTLVLKKELVAHLKCTITGLTFWDPSCEAEDRGDKFVLRSAYSSCGMQVSASMISNEAVVNILSSSSPQRKKVHCLNMDSLSFQLGLYLSPHFLQASNTIEPGQQSFVQVRVSPSVSEFLLQLDSCHLDLGPEGGTVELIQGRAAKGNCVSLLSPSPEGDPRFSFLLHFYTVPIPKTGTLSCTVALRPKTGSQDQEVHRTVFMRLNIISPDLSGCTSKGLVLPAVLGITFGAFLIGALLTAALWYIYSHTRSPSKREPVVAVAAPASSESSSTNHSIGSTQSTPCSTSSMA
B1: the binding result (in test [3]; in the test with GFP-tagged Shank3) was “binds” in each case.

B2: flag-tagged Lphn2 (Lphn2-Flag) (receptor, UniProt O95490 26-1459)
chain: FSRAALPFGLVRRELSCEGYSIDLRCPGSDVIMIESANYGRTDDKICDADPFQMENTDCYLPDAFKIMTQRCNNRTQCIVVTGSDVFPDPCPGTYKYLEVQYECVPYIFVCPGTLKAIVDSPCIYEAEQKAGAWCKDPLQAADKIYFMPWTPYRTDTLIEYASLEDFQNSRQTTTYKLPNRVDGTGFVVYDGAVFFNKERTRNIVKFDLRTRIKSGEAIINYANYHDTSPYRWGGKTDIDLAVDENGLWVIYATEQNNGMIVISQLNPYTLRFEATWETVYDKRAASNAFMICGVLYVVRSVYQDNESETGKNSIDYIYNTRLNRGEYVDVPFPNQYQYIAAVDYNPRDNQLYVWNNNFILRYSLEFGPPDPAQVPTTAVTITSSAELFKTIISTTSTTSQKGPMSTTVAGSQEGSKGTKPPPAVSTTKIPPITNIFPLPERFCEALDSKGIKWPQTQRGMMVERPCPKGTRGTASYLCMISTGTWNPKGPDLSNCTSHWVNQLAQKIRSGENAASLANELAKHTKGPVFAGDVSSSVRLMEQLVDILDAQLQELKPSEKDSAGRSYNKLQKREKTCRAYLKAIVDTVDNLLRPEALESWKHMNSSEQAHTATMLLDTLEEGAFVLADNLLEPTRVSMPTENIVLEVAVLSTEGQIQDFKFPLGIKGAGSSIQLSANTVKQNSRNGLAKLVFIIYRSLGQFLSTENATIKLGADFIGRNSTIAVNSHVISVSINKESSRVYLTDPVLFTLPHIDPDNYFNANCSFWNYSERTMMGYWSTQGCKLVDTNKTRTTCACSHLTNFAILMAHREIAYKDGVHELLLTVITWVGIVISLVCLAICIFTFCFFRGLQSDRNTIHKNLCINLFIAEFIFLIGIDKTKYAIACPIFAGLLHFFFLAAFAWMCLEGVQLYLMLVEVFESEYSRKKYYYVAGYLFPATVVGVSAAIDYKSYGTEKACWLHVDNYFIWSFIGPVTFIILLNIIFLVITLCKMVKHSNTLKPDSSRLENIKSWVLGAFALLCLLGLTWSFGLLFINEETIVMAYLFTIFNAFQGVFIFIFHCALQKKVRKEYGKCFRHSYCCGGLPTESPHSSVKASTTRTSARYSSGTQSRIRRMWNDTVRKQSESSFISGDINSTSTLNQGMTGNYLLTNPLLRPHGTNNPYNTLLAETVVCNAPSAPVFNSPGHSLNNARDTSAMDTLPLNGNFNNSYSLHKGDYNDSVQVVDCGLSLNDTAFEKMIISELVHNNLRGSSKTHNLELTLPVKPVIGGSSSEDDAIVADASSLMHSDNPGLELHHKELEAPLIPQRTHSLLYQPQKKVKSEGTDSYVSQLTAEAEDHLQSPNRDSLYTSMPNLRDSPYPESSPDMEEDLSPSRRSENEDIYYKSMPNLGAGHQLQMCYQISRGNSDGYIIPINKEGCIPEGDVREGQMQLVTSL
Consider B2, for which the binding result with GFP-tagged Shank3 is reported as “binds”.

Source of the values: paper doi:10.1101/2025.06.30.662394.
